{"source": "patent US20190142864A1", "about": "“METHODS AND SYSTEMS, FOR INTERFERING WITH VIABILITY OF BACTERIA AND RELATED ANTIMICROBIALS AND COMPOSITIONS” (CALIFORNIA INSTITUTE OF TECHNOLOGY, priority 2017, published 2019)", "assay_type_in_all_cases": "cell-based, Pseudomonas aeruginosa", "key": {"P. aeruginosa cultures": {"tested_on": "P. aeruginosa cultures", "test": "72 hr survival assay with viable-cell counts and chlorate quantification", "conditions": "1 mM chlorate", "method": "Viable-cell plate counts were performed by serially diluting samples in phosphate-buffered saline (PBS). Dilutions spanning 7 orders of magnitude were plated on LB agar plates as 10-μl drips. Plates were incubated at 37° C. for ˜20 h, and incubation continued at room temperature (72 hr of total incubation) to allow for the growth of slow-growing colonies. Colonies were counted daily, and numbers of CFU per milliliter were calculated at the end of the incubation period. All viable-cell plate counting was carried out under aerobic conditions."}, "[1]": {"tested_on": "P. aeruginosa aggregate biofilms", "test": "Oxygen profiling of treated ABBA samples", "conditions": "after 6 hr treatment; 40 μg/ml tobramycin, 10 mM chlorate"}, "[2]": {"tested_on": "P. aeruginosa narG transposon mutant", "test": "Anaerobic adaptation and survival, narG mutant", "conditions": "1 mM chlorate, 72 hr anoxic", "method": "Overnight cultures were grown aerobically in LB with 40 mM KNO3, 100 mM L-arabinose, 50 μg ml^−1 gentamicin (for strains containing pMQ72-derived plasmids), and 50 μg ml^−1 kanamycin (for transposon insertion strains). Overnight cultures were pelleted, washed twice in LB with 100 mM L-arabinose to remove antibiotics, and resuspended in LB with 100 mM L-arabinose with or without 1 mM sodium chlorate at high cell density (OD500˜3). Two hundred microliters of resuspended culture was added to 96-well microtiter plates, and the plates were moved to the anaerobic glove box for cells to adapt to the anaerobic lifestyle. After a 72-hr incubation at 33° C., 96-well plates were removed from the anaerobic glove box and viable cells on plates were counted to calculate numbers of CFU per milliliter (described above). Percent survival was calculated for each strain by dividing CFU-permilliliter values from cultures containing chlorate by the average CFU-per-milliliter value from control cultures lacking chlorate and multiplying by 100. CFU-per-milliliter values of untreated control cultures were similar across strains, ranging from 1.0×10^9 to 2.2×10^9. The percentage of chlorate remaining after the 72-hr incubation was determined for each strain by dividing the final chlorate concentration in each culture by the initial chlorate concentration in the medium and multiplying by 100.\nIn these experiments, the wild type (WT) and a narG transposon mutant were used and complemented with narGHJI (encoding Nar structural subunits and assembly proteins) carried by an arabinose-inducible vector or with an empty vector. Because narG mutants cannot grow anaerobically, all strains were grown aerobically, washed and resuspended in fresh medium containing or lacking chlorate, and moved to an anaerobic chamber to adapt to anoxia. Viable-cell plate counts were determined after a 72-hr incubation. While oxic WT cultures are not sensitive to chlorate (FIG. 1), anoxia-adapted cultures show a 5-log decrease in viable-cell counts compared to untreated cultures (FIG. 5A). […]"}}}
{"smiles": "[O-][Cl+2]([O-])O", "note": "[chlorate, sodium chlorate]", "values": [{"measurement": "chlorate consumption by culture", "setting": "P. aeruginosa cultures; anoxic cultures with 40 mM nitrate, during nitrate consumption", "result": "consumed at a seemingly constant rate"}, {"measurement": "chlorate concentrations in culture", "setting": "P. aeruginosa cultures; oxic cultures, 72 hr", "result": "stable"}, {"measurement": "oxygen profile of treated aggregate biofilms", "setting": "[1]", "result": "remain greater than zero"}, {"measurement": "chlorate consumed", "setting": "[2]; nap genes overexpressed in narG mutant background", "result": 15, "unit": "%"}, {"measurement": "chlorate concentrations in culture", "setting": "[2]; narG mutant cultures", "result": "stable"}, {"measurement": "chlorate concentrations in culture", "setting": "[2]; narG mutant-complemented cultures", "result": "decrease"}]}
